Strings that start with PEPTIDE1 are HELM notation: dots part the residues, brackets hold end groups and non-standard residues.
Assay: general procedure: peptide synthesis; 2-chlorotrityl chloride polystyrene resin; PyBOP/HOBt/DIPEA; PyBrOP/DIPEA for coupling to MePhe
Settings: whole synthesis, TFA salt

PEPTIDE1{[ac].[dA].[Arg(MC)].[MePhe].[isoAsp]}$$$$V2.0
crude mass: 12.3 mg
isolated mass: 4.0 mg
isolated yield (based on 0.21 mmol starting resin, scale of the general procedure 0.42 mmol resin, divided into two equal portions (0.21 mmol)): 26%
